The record followed here is the supplement of paper PMC10077471.

Over roughly 1,900 compounds, “excess over highest single agent (ExcessHSA) synergy score, 6x6 matrix” has its median near -83; the lowest 2% begin near -370. Some of the results follow.

In this assay the test system is NCI-H446. The assay is described as follows: excess over highest single agent (ExcessHSA) synergy score, 6x6 matrix; higher = less synergy (more negative = stronger synergy). The conditions noted are these: 72 h; CellTiter-Glo viability. On the technique in general: ATP-based viability assays read luminescence as a measure of living cells.
On to `c1ccc(CCCN2CCN(CCOC(c3ccccc3)c3ccccc3)CC2)cc1` + Cc1sc2c(c1C)C(c1ccc(Cl)cc1)=N[C@@H](CC(=O)OC(C)(C)C)c1nnc(C)n1-2 [NCGC00250412-19], for which the “excess over highest single agent” value was -22.1.

On to `Cc1ccccc1C(OCCN(C)C)c1ccccc1` (centres undefined) + Cc1sc2c(c1C)C(c1ccc(Cl)cc1)=N[C@@H](CC(=O)OC(C)(C)C)c1nnc(C)n1-2 [NCGC00250412-19], for which the “excess over highest single agent” value was -47.4.

As to `CN1[C@@H]2CC[C@H]1C[C@@H](OC(=O)C(CO)c1ccccc1)C2` (some centres undefined) + Cc1sc2c(c1C)C(c1ccc(Cl)cc1)=N[C@@H](CC(=O)OC(C)(C)C)c1nnc(C)n1-2 [NCGC00250412-19], the “excess over highest single agent” value is -105.

For `Cc1cncc2cccc(S(=O)(=O)N3CCCN(C(=O)CN)C[C@@H]3C)c12` + Cc1sc2c(c1C)C(c1ccc(Cl)cc1)=N[C@@H](CC(=O)OC(C)(C)C)c1nnc(C)n1-2 [NCGC00250412-19], the “excess over highest single agent” value is -137.

As for `Cc1cc(Nc2cc(N3CCN(C)CC3)nc(/C=C/c3ccccc3)n2)n[nH]1` + Cc1sc2c(c1C)C(c1ccc(Cl)cc1)=N[C@@H](CC(=O)OC(C)(C)C)c1nnc(C)n1-2 [NCGC00250412-19], the “excess over highest single agent” value is -138.

For the compound `COCCOc1ccc2c(c1)ncn2-c1ccc2cccc(N3CCC(N)CC3)c2n1` + Cc1sc2c(c1C)C(c1ccc(Cl)cc1)=N[C@@H](CC(=O)OC(C)(C)C)c1nnc(C)n1-2 [NCGC00250412-19], the “excess over highest single agent” value turned out to be 94.4.

With `Cc1cc(-c2ccc(CC(=O)Nc3ccc(-c4cccnc4)cc3)cc2)ccn1` + Cc1sc2c(c1C)C(c1ccc(Cl)cc1)=N[C@@H](CC(=O)OC(C)(C)C)c1nnc(C)n1-2 [NCGC00250412-19], the “excess over highest single agent” value amounted to 106.

Turning to `COc1ccc(C2CC(c3ccccc3)=NN2c2ccc(S(N)(=O)=O)cc2)cc1` (centres undefined) + Cc1sc2c(c1C)C(c1ccc(Cl)cc1)=N[C@@H](CC(=O)OC(C)(C)C)c1nnc(C)n1-2 [NCGC00250412-19], the “excess over highest single agent” value was determined as 33.3.

For `C[C@]12CCC(=O)C=C1CC[C@@H]1[C@@H]2CC[C@@]2(C)[C@H]1CC[C@]2(C)O` + Cc1sc2c(c1C)C(c1ccc(Cl)cc1)=N[C@@H](CC(=O)OC(C)(C)C)c1nnc(C)n1-2 [NCGC00250412-19], the “excess over highest single agent” value was -111.

As to `Oc1cc(O)c(Cl)cn1` + Cc1sc2c(c1C)C(c1ccc(Cl)cc1)=N[C@@H](CC(=O)OC(C)(C)C)c1nnc(C)n1-2 [NCGC00250412-19], the “excess over highest single agent” value was -59.4.

For `O=c1[nH]nc(OCCCc2ccc(Cl)cc2)c(NCc2cccnc2)c1Br` + Cc1sc2c(c1C)C(c1ccc(Cl)cc1)=N[C@@H](CC(=O)OC(C)(C)C)c1nnc(C)n1-2 [NCGC00250412-19], the “excess over highest single agent” value was -40.7.

Turning to `CC1(C)CNc2cc(NC(=O)c3cccnc3NCc3ccncc3)ccc21` + Cc1sc2c(c1C)C(c1ccc(Cl)cc1)=N[C@@H](CC(=O)OC(C)(C)C)c1nnc(C)n1-2 [NCGC00250412-19], the “excess over highest single agent” value is -165.

Take `Cn1cc(-c2[nH]c3cc(NC(=O)[C@H](N)C4CCCCC4)cc4c3c2C=NNC4=O)cn1` + Cc1sc2c(c1C)C(c1ccc(Cl)cc1)=N[C@@H](CC(=O)OC(C)(C)C)c1nnc(C)n1-2 [NCGC00250412-19]: the “excess over highest single agent” value was determined as 16.8.

For `COC(=O)[C@]12CCC(C)(C)C[C@H]1[C@H]1C(=O)C=C3[C@@]4(C)C=C(C#N)C(=O)C(C)(C)[C@@H]4CC[C@@]3(C)[C@]1(C)CC2` + Cc1sc2c(c1C)C(c1ccc(Cl)cc1)=N[C@@H](CC(=O)OC(C)(C)C)c1nnc(C)n1-2 [NCGC00250412-19], the “excess over highest single agent” value is -219.

`CCCCC[C@H](O)/C=C/[C@H]1[C@H](O)CC(=O)[C@@H]1CCCCCCC(=O)O` + Cc1sc2c(c1C)C(c1ccc(Cl)cc1)=N[C@@H](CC(=O)OC(C)(C)C)c1nnc(C)n1-2 [NCGC00250412-19]: the “excess over highest single agent” value is -120.

For `CC[C@@H]([C@H](C)O)n1ncn(-c2ccc(N3CCN(c4ccc(OC[C@@H]5CO[C@@](Cn6cncn6)(c6ccc(F)cc6F)C5)cc4)CC3)cc2)c1=O` + Cc1sc2c(c1C)C(c1ccc(Cl)cc1)=N[C@@H](CC(=O)OC(C)(C)C)c1nnc(C)n1-2 [NCGC00250412-19], the “excess over highest single agent” value was -10.1.

In the case of `CN1CCC[C@@H]1CCO[C@](C)(c1ccccc1)c1ccc(Cl)cc1` + Cc1sc2c(c1C)C(c1ccc(Cl)cc1)=N[C@@H](CC(=O)OC(C)(C)C)c1nnc(C)n1-2 [NCGC00250412-19], the “excess over highest single agent” value was -191.

For `COc1cc2ncnc(Nc3ccc(F)c(Cl)c3)c2cc1OCCCN1CCOCC1` + Cc1sc2c(c1C)C(c1ccc(Cl)cc1)=N[C@@H](CC(=O)OC(C)(C)C)c1nnc(C)n1-2 [NCGC00250412-19], the “excess over highest single agent” value is -96.6.

For the compound `C[C@]12CCC(=O)C(O)=C1CC[C@@H]1[C@@H]2CC[C@]2(C)C(=O)CC[C@@H]12` + Cc1sc2c(c1C)C(c1ccc(Cl)cc1)=N[C@@H](CC(=O)OC(C)(C)C)c1nnc(C)n1-2 [NCGC00250412-19], the “excess over highest single agent” value was -209.

`C=C(c1ccc(C(=O)O)cc1)c1cc2c(cc1C)C(C)(C)CCC2(C)C` + Cc1sc2c(c1C)C(c1ccc(Cl)cc1)=N[C@@H](CC(=O)OC(C)(C)C)c1nnc(C)n1-2 [NCGC00250412-19]: the “excess over highest single agent” value is -177.

`CC[N+](CC)(CC)CCOc1cccc(OCC[N+](CC)(CC)CC)c1OCC[N+](CC)(CC)CC` + Cc1sc2c(c1C)C(c1ccc(Cl)cc1)=N[C@@H](CC(=O)OC(C)(C)C)c1nnc(C)n1-2 [NCGC00250412-19]: the “excess over highest single agent” value was -41.8.

Regarding `O=c1[nH]nc(Sc2ncc([N+](=O)[O-])s2)n1-c1ccc2c(c1)OCCO2` + Cc1sc2c(c1C)C(c1ccc(Cl)cc1)=N[C@@H](CC(=O)OC(C)(C)C)c1nnc(C)n1-2 [NCGC00250412-19], the “excess over highest single agent” value is -126.

In the case of `CC/C(=C(\c1ccccc1)c1ccc(OCCN(C)C)cc1)c1ccccc1` + Cc1sc2c(c1C)C(c1ccc(Cl)cc1)=N[C@@H](CC(=O)OC(C)(C)C)c1nnc(C)n1-2 [NCGC00250412-19], the “excess over highest single agent” value was -272.

Regarding `Cc1nn(Cc2ccccc2Cl)c(C)c1CN(C)CC(O)COc1ccc(Cl)cc1` (centres undefined) + Cc1sc2c(c1C)C(c1ccc(Cl)cc1)=N[C@@H](CC(=O)OC(C)(C)C)c1nnc(C)n1-2 [NCGC00250412-19], the “excess over highest single agent” value was -95.8.

`O=c1c(O)c(-c2ccc(O)c(O)c2)oc2cc(O)cc(O)c12` + Cc1sc2c(c1C)C(c1ccc(Cl)cc1)=N[C@@H](CC(=O)OC(C)(C)C)c1nnc(C)n1-2 [NCGC00250412-19]: the “excess over highest single agent” value was -264.

As to `CCOC(=O)C1=C(O)C(=O)N(Cc2ccccc2)C1` + Cc1sc2c(c1C)C(c1ccc(Cl)cc1)=N[C@@H](CC(=O)OC(C)(C)C)c1nnc(C)n1-2 [NCGC00250412-19], the “excess over highest single agent” value is -90.7.

As for `O=C(c1cncc(Br)c1)N1CCC(N2CCCC2)CC1` + Cc1sc2c(c1C)C(c1ccc(Cl)cc1)=N[C@@H](CC(=O)OC(C)(C)C)c1nnc(C)n1-2 [NCGC00250412-19], the “excess over highest single agent” value is -123.

Regarding `Cc1cnc(C(=O)O)c[n+]1[O-]` + Cc1sc2c(c1C)C(c1ccc(Cl)cc1)=N[C@@H](CC(=O)OC(C)(C)C)c1nnc(C)n1-2 [NCGC00250412-19], the “excess over highest single agent” value is -118.

`O=C(O)C1(C(=O)O)CCC1.[NH2-].[NH2-].[Pt+2]` + Cc1sc2c(c1C)C(c1ccc(Cl)cc1)=N[C@@H](CC(=O)OC(C)(C)C)c1nnc(C)n1-2 [NCGC00250412-19]: the “excess over highest single agent” value was -79.9.

Take `Cc1cccc(-c2nn(C(=S)Nc3ccccc3)cc2-c2ccnc3ccccc23)n1` + Cc1sc2c(c1C)C(c1ccc(Cl)cc1)=N[C@@H](CC(=O)OC(C)(C)C)c1nnc(C)n1-2 [NCGC00250412-19]: the “excess over highest single agent” value came out at 108.

On to `Nc1nc2[nH]cc(CCc3ccc(C(=O)N[C@@H](CCC(=O)O)C(=O)O)cc3)c2c(=O)[nH]1` + Cc1sc2c(c1C)C(c1ccc(Cl)cc1)=N[C@@H](CC(=O)OC(C)(C)C)c1nnc(C)n1-2 [NCGC00250412-19], for which the “excess over highest single agent” value stood at 29.8.

Turning to `CC(C)Cc1ccc(C(C)C(=O)O)cc1` (centres undefined) + Cc1sc2c(c1C)C(c1ccc(Cl)cc1)=N[C@@H](CC(=O)OC(C)(C)C)c1nnc(C)n1-2 [NCGC00250412-19], the “excess over highest single agent” value is -85.8.

`CCOC(=O)Nc1ccc(NCc2ccc(F)cc2)nc1N` + Cc1sc2c(c1C)C(c1ccc(Cl)cc1)=N[C@@H](CC(=O)OC(C)(C)C)c1nnc(C)n1-2 [NCGC00250412-19]: the “excess over highest single agent” value is -130.

As to `COc1ccc(C(CN(C)C)C2(O)CCCCC2)cc1` (centres undefined) + Cc1sc2c(c1C)C(c1ccc(Cl)cc1)=N[C@@H](CC(=O)OC(C)(C)C)c1nnc(C)n1-2 [NCGC00250412-19], the “excess over highest single agent” value was determined as 67.3.

Consider `CC1COc2c(N3CCN(C)CC3)c(F)cc3c(=O)c(C(=O)O)cn1c23` (centres undefined) + Cc1sc2c(c1C)C(c1ccc(Cl)cc1)=N[C@@H](CC(=O)OC(C)(C)C)c1nnc(C)n1-2 [NCGC00250412-19], for which the “excess over highest single agent” value was -88.4.

As to `CC(=O)SCC(Cc1ccccc1)C(=O)NCC(=O)OCc1ccccc1` (centres undefined) + Cc1sc2c(c1C)C(c1ccc(Cl)cc1)=N[C@@H](CC(=O)OC(C)(C)C)c1nnc(C)n1-2 [NCGC00250412-19], the “excess over highest single agent” value came to 18.4.

Turning to `O=C(Oc1ccc([N+](=O)[O-])cc1)N1CCN(Cc2cccc(Oc3ccccc3)c2)CC1` + Cc1sc2c(c1C)C(c1ccc(Cl)cc1)=N[C@@H](CC(=O)OC(C)(C)C)c1nnc(C)n1-2 [NCGC00250412-19], the “excess over highest single agent” value is -256.

In the case of `Cn1c(Nc2ccc(C(F)(F)F)cc2)nc2cc(Oc3ccnc(-c4ncc(C(F)(F)F)[nH]4)c3)ccc21` + Cc1sc2c(c1C)C(c1ccc(Cl)cc1)=N[C@@H](CC(=O)OC(C)(C)C)c1nnc(C)n1-2 [NCGC00250412-19], the “excess over highest single agent” value was -155.

In the case of `COc1cc(Oc2ccnc3cc(OC)c(OC)cc23)ccc1NC(=O)NC(C)c1nccs1` (centres undefined) + Cc1sc2c(c1C)C(c1ccc(Cl)cc1)=N[C@@H](CC(=O)OC(C)(C)C)c1nnc(C)n1-2 [NCGC00250412-19], the “excess over highest single agent” value is -83.5.
